Experimental data published in publication doi:10.1101/2023.06.06.543836.
These are yes or no findings as the source states them, for the method shown. Binding seen in cells or lysates may run through a third protein. Some binding calls cover weakened binding; strength is not graded here.

Amino acid sequences for entries named in this document (tags omitted). Residues count along the entry.
UniProt P70658: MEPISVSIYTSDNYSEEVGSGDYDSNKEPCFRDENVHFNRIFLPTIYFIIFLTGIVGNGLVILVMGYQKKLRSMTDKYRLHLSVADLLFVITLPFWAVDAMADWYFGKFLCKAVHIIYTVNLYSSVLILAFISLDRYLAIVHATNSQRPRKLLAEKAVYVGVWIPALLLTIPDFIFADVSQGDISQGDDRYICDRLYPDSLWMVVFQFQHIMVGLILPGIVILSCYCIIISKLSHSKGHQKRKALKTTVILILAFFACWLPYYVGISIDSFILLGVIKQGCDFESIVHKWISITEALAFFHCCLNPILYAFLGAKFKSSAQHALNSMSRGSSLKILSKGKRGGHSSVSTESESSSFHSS
UniProt P40224, residues 22-93: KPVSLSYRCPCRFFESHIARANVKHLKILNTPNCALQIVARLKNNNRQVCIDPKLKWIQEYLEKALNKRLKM
UniProt P63158: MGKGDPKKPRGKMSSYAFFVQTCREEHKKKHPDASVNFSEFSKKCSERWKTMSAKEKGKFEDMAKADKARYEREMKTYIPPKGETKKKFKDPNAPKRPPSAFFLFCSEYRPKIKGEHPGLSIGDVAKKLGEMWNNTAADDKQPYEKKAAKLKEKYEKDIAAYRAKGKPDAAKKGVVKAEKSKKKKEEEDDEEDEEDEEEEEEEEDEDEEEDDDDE

Experiments:
[1] = molecular target: CXCR4 receptor on AB1 cells (mouse (endogenous in AB1)) (UniProt P70658); experiment: proximity ligation
[2] = molecular target: CXCL12 on the surface of AB1 cells (mouse (endogenous in AB1)) (UniProt P40224); experiment: proximity ligation

binding [1] | binding [2] | Substance
binds |  | HMGB1•CXCL12 heterocomplex on the surface of AB1 cells (from UniProt P63158 1-215; P40224 22-93)
 | binds | HMGB1 on the surface of AB1 cells (from UniProt P63158 1-215)
